Results published in PubChem BioAssay AID2685 (National Center for Advancing Translational Sciences (NCATS), 2010).
This is one part of the list. The main result of the screen is listed elsewhere. These columns were measured beside it and carry no call. The list favours compounds with an active or inconclusive main result. The note in brackets gives the kind of curve behind each potency; many fits are weak.

Assay: qHTS Assay for Lipid Storage Modulators in Drosophila S3 Cells;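 as to cell number change: cells counted by Cell Tracker Red CMTPX staining in the red channel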
Details: BODIPY lipid droplet fluorescence, 18-24 h; for cell number change: measured here: cell count max response, cells fed with added oleic acid
Summary of the method: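 Drosophila S3 cells got compounds at several concentrations plus oleic acid (400 uM solution). Laser-scanning cytometry with 488 nm excitation read lipid droplets at 500-530 nm and cells at 575-640 nm. Percent activity was relative to 20 uM Triacsin C.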

[1] = measured here: lipid fluorescence (Fed channel) AC50, cells fed with added oleic acid
[2] = measured here: cell number channel AC50, cells fed with added oleic acid

| SMILES | cell number change [%] | AC50 [1] | AC50 [2] |
| --- | --- | --- | --- |
| CSc1ccc(S(=O)(=O)NCC(=O)OCC(=O)NCC2CCCO2)cc1[N+](=O)[O-] (configuration not stated) | -8.1 | 1.64 µM [falling, full curve, poor fit] |  |
| C=CCNc1ncnc2c1[nH]c1ccc(Cl)cc12 | -3.31 |  | 0.092 µM [rising, full curve, poor fit] |
| COc1ccc(F)cc1S(=O)(=O)N1CCCN(S(=O)(=O)c2cc(F)ccc2OC)CC1 | -1.85 | 6.51 µM [rising, single point] |  |
| CC(=O)Nc1ccc(C(=O)N2CCN(S(=O)(=O)c3ccc4c(c3)OCCCO4)CC2)cc1 | -2.33 | 10.3 µM [rising, partial curve, poor fit] |  |
| O=C(OCC(=O)N1c2ccccc2Sc2ccccc21)c1cccnc1 | 112 |  | 23.1 µM [rising, single point] |
| O=C(C1CCN(c2nnc(-n3cccc3)s2)CC1)N1CCN(Cc2ccc3c(c2)OCO3)CC1 | -0.711 | 18.4 µM [falling, single point] |  |
| CC(C(=O)NCC(=O)Nc1ccc(F)c(F)c1F)N1CCN(c2ccc(O)cc2)CC1 (configuration not stated) | 14.3 | 32.6 µM [falling, single point] |  |
| Cc1ccc2c(c1)N(CC(=O)N(Cc1ccc3c(c1)OCO3)CC1CCCO1)C(=O)C(C)O2 (configuration not stated) | -18.3 | 4.11 µM [rising, full curve, poor fit] |  |
| CCN=C(NCC)SC1CC(=O)N(c2cccc(OC)c2)C1=O (configuration not stated) | 7.41 | 6.51 µM [falling, single point] |  |
| Cc1ccccc1NC(=O)COC(=O)CNC(=O)c1sc2ccccc2c1Cl | 0.916 | 29.1 µM [rising, single point] |  |
| O=C(c1ccc(N2CCCC2)c([N+](=O)[O-])c1)N1CCN(S(=O)(=O)c2ccccc2)CC1 | -17.7 |  |  |
| CC1=CC(C)(C)n2c(O)c(C3=NC(=S)NC3=O)c3cc(OC(=O)c4cccc5ccccc45)cc1c32 | -16.9 | 29.1 µM [rising, single point] |  |
| COc1cc(C(N)=O)cc(Br)c1OCc1ccccc1 | -9.88 |  |  |
| Clc1ccc(C2=Nn3c(nnc3-c3n[nH]c4c3CCC4)SC2)cc1 | 6.45 | 29.1 µM [falling, partial curve, poor fit] |  |
| Cc1nonc1-c1csc(N)n1 | -24.3 |  | 2.06 µM [rising, partial curve, poor fit] |
| Cc1ccc[n+](C(C)C(=O)c2ccc(Cl)cc2)c1 (configuration not stated) | -7.46 | 3.26 µM [rising, full curve] |  |
| CCN(CC)C(=N)/C(C#N)=N/Nc1ccccc1 | -15.7 | 0.0058 µM [falling, full curve, poor fit] |  |
| COC(=O)[C@H](Cc1ccccc1)NC(=O)N1CCCCC1C (some centres not stated) | -43.7 | 7.31 µM [falling, partial curve] | 32.6 µM [falling, single point] |
| COc1cccc(-c2csc(N3CCN(Cc4ccccc4)CC3)n2)c1 | -25.9 | 3.66 µM [rising, single point] |  |
| Nc1cccc(-c2cn(-c3cc4cc(C#CC5(O)CCCCC5)ccc4oc3=O)nn2)c1 | -41.8 | 25.9 µM [falling, single point] | 25.9 µM [falling, single point] |

| SMILES | cell number change [%] | AC50 [1] | AC50 [2] |
| --- | --- | --- | --- |
| CS(=O)(=O)n1nc(OC(=O)c2cccs2)cc1N | 30.6 | 16.4 µM [rising, partial curve] | 25.9 µM [rising, single point] |
| CCc1nn(CC(=O)N2CCCCCC2)c(=O)c2cc3ccccc3n12 | -5.27 | 5.8 µM [rising, full curve] |  |
| Cc1cccc(C)c1NS(=O)(=O)c1c(C)[nH]c(=O)[nH]c1=O | -6.12 | 0.058 µM [falling, full curve, poor fit] |  |
| CCOC(=O)c1ccc(NC(=S)Nc2cccc(N)n2)cc1 | -26.6 | 18.4 µM [falling, single point] |  |
| FC(F)(F)COc1ccc(-n2ccnc2)nn1 | 9.17 | 6.51 µM [falling, single point] | 0.103 µM [falling, full curve, poor fit] |
| Cc1onc(NC(=O)NC(=O)c2ccccc2F)c1Br | 42.6 | 29.1 µM [rising, single point] | 6.51 µM [rising, partial curve] |
| CCn1c(CNc2nc(-c3ccccc3)cs2)nnc1SCC(=O)NCc1ccco1 | 8.63 | 5.17 µM [rising, partial curve, poor fit] |  |
| OC(CN1C2=NCCN2c2ccccc21)c1ccc(Br)cc1 (configuration not stated) | -41.2 | 1.03 µM [falling, full curve, poor fit] | 0.82 µM [falling, full curve, poor fit] |
| Cc1ccc(-c2nn3c(-c4ccco4)nnc3c3ccccc23)cc1S(=O)(=O)NCC1CCCO1 (configuration not stated) | 10.2 | 2.59 µM [rising, full curve, poor fit] |  |
| Cc1cccc(NC(=O)COC(=O)CSc2ccccc2)c1C | 17 | 2.91 µM [rising, partial curve, poor fit] |  |
| CCC(C)(C(=O)Nc1c(C)cccc1C)N(C)C(=O)c1ccc2ccccc2n1 (configuration not stated) | 12.9 |  |  |
| CCN1CCN(Cc2ccc(NC(=O)c3cc(NC(=O)c4cncc(-c5cccs5)c4)cc(OC)c3)cc2C(F)(F)F)CC1 | -21 |  |  |
| COc1ccc(/C=N/N=C2/C(=O)Nc3ccccc32)cc1O | 63.1 |  | 23.1 µM [rising, single point] |
| O=C(COc1cccc(C(F)(F)F)c1)Nc1ccc(S(=O)(=O)N2CCCCC2)cc1 | -27.4 | 20.6 µM [falling, single point] |  |
| CCCCOc1ccc(C(=O)Nn2cnnc2)cc1 | 1.27 |  |  |
| COC(=O)c1cc(NC(=O)CSc2ncn[nH]2)ccc1Cl | 0.829 | 29.1 µM [rising, single point] |  |
| Cc1cc(OCC(=O)N[C@@H](CSCc2ccccc2)C(=O)O)c2c(C)c(C)c(=O)oc2c1 | 19.4 | 29.1 µM [rising, single point] |  |
| NC(=O)c1ccc(NS(=O)(=O)c2ccc(Br)s2)cc1 | -6.1 | 0.00651 µM [falling, full curve, poor fit] |  |
| CC(C)OCCCNC(=O)c1ccc(NC(=O)C2=CSCCO2)cc1 |  | 20.6 µM [falling, single point] |  |
| COc1cccc(CN2CCNC(=O)C2CC(=O)NC2CCCCCCC2)c1 (configuration not stated) | 31.8 |  |  |

Compounds listed so far containing a halogen (14):

| SMILES | cell number change [%] | AC50 [1] | AC50 [2] |
| --- | --- | --- | --- |
| C=CCNc1ncnc2c1[nH]c1ccc(Cl)cc12 | -3.31 |  | 0.092 µM [rising, full curve, poor fit] |
| COc1ccc(F)cc1S(=O)(=O)N1CCCN(S(=O)(=O)c2cc(F)ccc2OC)CC1 | -1.85 | 6.51 µM [rising, single point] |  |
| CC(C(=O)NCC(=O)Nc1ccc(F)c(F)c1F)N1CCN(c2ccc(O)cc2)CC1 (configuration not stated) | 14.3 | 32.6 µM [falling, single point] |  |
| Cc1ccccc1NC(=O)COC(=O)CNC(=O)c1sc2ccccc2c1Cl | 0.916 | 29.1 µM [rising, single point] |  |
| COc1cc(C(N)=O)cc(Br)c1OCc1ccccc1 | -9.88 |  |  |
| Clc1ccc(C2=Nn3c(nnc3-c3n[nH]c4c3CCC4)SC2)cc1 | 6.45 | 29.1 µM [falling, partial curve, poor fit] |  |
| Cc1ccc[n+](C(C)C(=O)c2ccc(Cl)cc2)c1 (configuration not stated) | -7.46 | 3.26 µM [rising, full curve] |  |
| FC(F)(F)COc1ccc(-n2ccnc2)nn1 | 9.17 | 6.51 µM [falling, single point] | 0.103 µM [falling, full curve, poor fit] |
| Cc1onc(NC(=O)NC(=O)c2ccccc2F)c1Br | 42.6 | 29.1 µM [rising, single point] | 6.51 µM [rising, partial curve] |
| OC(CN1C2=NCCN2c2ccccc21)c1ccc(Br)cc1 (configuration not stated) | -41.2 | 1.03 µM [falling, full curve, poor fit] | 0.82 µM [falling, full curve, poor fit] |
| CCN1CCN(Cc2ccc(NC(=O)c3cc(NC(=O)c4cncc(-c5cccs5)c4)cc(OC)c3)cc2C(F)(F)F)CC1 | -21 |  |  |
| O=C(COc1cccc(C(F)(F)F)c1)Nc1ccc(S(=O)(=O)N2CCCCC2)cc1 | -27.4 | 20.6 µM [falling, single point] |  |
| COC(=O)c1cc(NC(=O)CSc2ncn[nH]2)ccc1Cl | 0.829 | 29.1 µM [rising, single point] |  |
| NC(=O)c1ccc(NS(=O)(=O)c2ccc(Br)s2)cc1 | -6.1 | 0.00651 µM [falling, full curve, poor fit] |  |

Continuation:

| SMILES | cell number change [%] | AC50 [1] | AC50 [2] |
| --- | --- | --- | --- |
| COc1ccccc1CN1CCCC(CNC(=O)c2cccc3ccccc23)C1 (configuration not stated) | 9.09 |  |  |
| CSc1nnc(C2CCN(CC(=O)Nc3ccccc3N3CCOCC3)CC2)n1C(C)C | -4.17 |  |  |
| CC1CCCC(NC(=O)c2ccc(COc3ccccc3)o2)C1C (configuration not stated) | -11.9 |  |  |
| Cc1cc(C(=O)COC(=O)c2ccc(O)cc2O)c(C)n1C(C)C | -1.13 | 0.13 µM [rising, full curve, poor fit] |  |
| COc1cccc2[nH]c3c(N4CC(C)CC(C)C4)ncnc3c12 (configuration not stated) | -63.4 | 3.66 µM [falling, full curve] | 5.8 µM [falling, partial curve] |
| O=C(COC(=O)C12CC3CC(CC(C3)C1)C2)Nc1ncc(Cl)cc1Cl | -41.8 | 29.1 µM [falling, single point] | 8.2 µM [falling, partial curve, poor fit] |
| CC(C)c1ccc(NC(=O)CCNC(=O)Cn2ccc3ccccc3c2=O)cc1 | 290 | 3.66 µM [rising, full curve] | 25.9 µM [rising, single point] |
| COc1ccc(N2CC(C(=O)N[C@H](C(=O)NC3CCCCC3)C(C)C)CC2=O)cc1 (some centres not stated) | 43.6 |  | 32.6 µM [rising, single point] |
| O=C(Cc1c[nH]c2ccccc12)OCCOC(=O)Cc1c[nH]c2ccccc12 | -37 | 16.4 µM [falling, single point] | 14.6 µM [falling, single point] |
| CC(=O)Nc1ccc(S(=O)(=O)NCCN2CCOCC2)cc1 | 1.51 |  |  |
| O=C1c2ccccc2C(=O)N1CCCCN(C(=O)c1cc2ccccc2oc1=O)c1ccc(F)cc1F | -2.37 | 25.9 µM [rising, single point] |  |
| CCOc1cc(/C=C/C(=O)O)ccc1OCCOc1ccc(F)cc1 | -20.8 | 0.326 µM [falling, full curve] | 0.146 µM [falling, full curve, poor fit] |
| CCOCCCNC(=S)Nc1ccc2nc3n(c(=O)c2c1)CCCCC3 |  | 2.06 µM [rising, partial curve] | 2.31 µM [rising, partial curve] |
| O=C(CCCC(=O)c1ccc(F)cc1)c1ccc(F)cc1 | 12.7 | 0.58 µM [rising, full curve, poor fit] |  |
| O=C(OCc1cccc(Cl)c1)c1cc(S(=O)(=O)N2CCCCC2)ccc1N1CCOCC1 | -17.8 | 29.1 µM [rising, single point] |  |
| COc1ccc(NC(=O)Cn2c(-c3ccc(OC)cc3)cn(-c3ccc(C)cc3)c2=O)cc1 | 26.2 | 5.8 µM [rising, partial curve] |  |
| O=C(CC1(O)C(=O)N(Cc2ccccc2)c2ccccc21)c1ccncc1 (configuration not stated) | 7.26 |  |  |
| CN1C(=O)CSC1=Nc1cccc(C(=O)O)c1 | 4.76 |  |  |
| Cc1cccc(NC(=O)C2CCN(c3ncnc4c3nc3n4CCCCC3)CC2)n1 | -24.1 | 6.51 µM [falling, single point] |  |
| COc1ccc(C(=O)Nc2cccc(-c3ccc(N4CCOCC4)nn3)c2)cc1 |  | 4.11 µM [falling, single point] |  |

Individual results from above.
For cell number change [%], CCOc1cc(/C=C/C(=O)O)ccc1OCCOc1ccc(F)cc1 has -20.8
For AC50 [1], O=C(CCCC(=O)c1ccc(F)cc1)c1ccc(F)cc1 has 0.58 µM [rising, full curve, poor fit]
